# Assay results reported in the supplement of paper PMC11732987, “Enantioselective OTUD7B fragment discovery through chemoproteomics screening and high-throughput optimisation” (Communications Chemistry, 2025).
# The chains behind the UniProt entries cited, without tags or fusion partners. Where a name states a change or a piece, a line headed by the entry shows the natural chain unless it says otherwise. Residues count along the entry.
# UniProt O75369, whole entry, looked up: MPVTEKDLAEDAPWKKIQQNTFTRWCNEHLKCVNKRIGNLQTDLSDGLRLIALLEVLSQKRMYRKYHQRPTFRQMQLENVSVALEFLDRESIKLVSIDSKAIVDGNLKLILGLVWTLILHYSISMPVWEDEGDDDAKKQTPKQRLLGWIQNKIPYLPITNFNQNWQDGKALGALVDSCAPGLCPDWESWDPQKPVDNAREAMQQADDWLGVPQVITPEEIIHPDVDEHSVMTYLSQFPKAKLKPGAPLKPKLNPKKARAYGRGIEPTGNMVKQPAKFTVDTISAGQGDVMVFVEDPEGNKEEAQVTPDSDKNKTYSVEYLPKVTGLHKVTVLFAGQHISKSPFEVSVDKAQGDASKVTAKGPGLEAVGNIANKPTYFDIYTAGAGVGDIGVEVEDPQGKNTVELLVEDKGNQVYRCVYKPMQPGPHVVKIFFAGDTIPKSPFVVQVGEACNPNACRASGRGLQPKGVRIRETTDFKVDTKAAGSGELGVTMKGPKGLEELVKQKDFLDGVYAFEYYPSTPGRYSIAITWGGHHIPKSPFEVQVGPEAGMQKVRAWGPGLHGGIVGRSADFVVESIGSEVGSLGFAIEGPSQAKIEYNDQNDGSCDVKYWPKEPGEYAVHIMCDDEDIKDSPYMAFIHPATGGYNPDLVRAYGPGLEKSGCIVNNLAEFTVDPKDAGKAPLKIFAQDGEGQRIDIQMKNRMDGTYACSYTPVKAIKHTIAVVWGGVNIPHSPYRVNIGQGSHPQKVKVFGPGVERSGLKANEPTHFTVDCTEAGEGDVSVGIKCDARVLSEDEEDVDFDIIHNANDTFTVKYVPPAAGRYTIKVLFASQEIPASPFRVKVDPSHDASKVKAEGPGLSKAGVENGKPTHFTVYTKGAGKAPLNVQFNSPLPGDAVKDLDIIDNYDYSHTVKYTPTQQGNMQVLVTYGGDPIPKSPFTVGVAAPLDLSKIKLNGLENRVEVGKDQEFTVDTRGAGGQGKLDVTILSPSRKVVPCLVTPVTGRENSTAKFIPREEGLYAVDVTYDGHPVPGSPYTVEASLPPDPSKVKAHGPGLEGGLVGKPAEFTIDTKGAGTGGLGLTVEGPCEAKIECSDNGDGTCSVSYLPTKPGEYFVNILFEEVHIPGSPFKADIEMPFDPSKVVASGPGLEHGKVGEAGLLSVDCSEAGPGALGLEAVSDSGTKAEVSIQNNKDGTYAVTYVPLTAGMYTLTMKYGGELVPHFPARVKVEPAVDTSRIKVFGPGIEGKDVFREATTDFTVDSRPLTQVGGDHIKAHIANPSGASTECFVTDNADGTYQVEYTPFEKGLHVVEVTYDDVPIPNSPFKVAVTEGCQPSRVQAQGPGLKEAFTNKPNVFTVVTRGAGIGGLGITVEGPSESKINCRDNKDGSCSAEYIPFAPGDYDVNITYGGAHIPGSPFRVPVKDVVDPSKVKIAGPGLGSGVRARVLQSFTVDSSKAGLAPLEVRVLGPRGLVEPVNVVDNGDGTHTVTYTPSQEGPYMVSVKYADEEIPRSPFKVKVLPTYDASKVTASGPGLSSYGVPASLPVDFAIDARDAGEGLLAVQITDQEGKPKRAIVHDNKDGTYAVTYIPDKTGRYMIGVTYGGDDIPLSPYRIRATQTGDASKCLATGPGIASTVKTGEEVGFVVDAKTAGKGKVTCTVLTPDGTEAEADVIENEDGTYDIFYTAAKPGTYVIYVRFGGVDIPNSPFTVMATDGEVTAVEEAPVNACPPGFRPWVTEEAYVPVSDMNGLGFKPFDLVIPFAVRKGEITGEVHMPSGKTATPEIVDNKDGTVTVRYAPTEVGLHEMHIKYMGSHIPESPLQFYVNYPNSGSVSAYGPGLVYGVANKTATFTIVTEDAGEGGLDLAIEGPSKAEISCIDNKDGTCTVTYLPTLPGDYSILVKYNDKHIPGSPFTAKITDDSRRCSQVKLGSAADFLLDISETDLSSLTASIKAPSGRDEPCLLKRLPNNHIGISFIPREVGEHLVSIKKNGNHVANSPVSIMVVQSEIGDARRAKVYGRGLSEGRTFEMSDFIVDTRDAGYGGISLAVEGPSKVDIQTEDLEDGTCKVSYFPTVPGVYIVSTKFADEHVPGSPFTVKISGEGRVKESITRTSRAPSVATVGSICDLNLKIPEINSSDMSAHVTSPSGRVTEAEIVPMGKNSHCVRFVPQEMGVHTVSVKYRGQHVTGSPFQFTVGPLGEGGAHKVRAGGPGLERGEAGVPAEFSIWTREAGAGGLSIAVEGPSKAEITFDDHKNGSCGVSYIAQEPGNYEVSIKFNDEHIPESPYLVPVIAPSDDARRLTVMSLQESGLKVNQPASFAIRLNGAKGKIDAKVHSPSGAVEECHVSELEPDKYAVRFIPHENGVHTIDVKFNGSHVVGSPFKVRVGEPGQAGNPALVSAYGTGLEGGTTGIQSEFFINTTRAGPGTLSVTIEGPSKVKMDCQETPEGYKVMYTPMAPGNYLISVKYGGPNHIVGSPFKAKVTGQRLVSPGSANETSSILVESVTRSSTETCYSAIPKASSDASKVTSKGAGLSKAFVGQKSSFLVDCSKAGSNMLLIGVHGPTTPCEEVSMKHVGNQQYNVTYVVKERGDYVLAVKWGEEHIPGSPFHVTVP
# UniProt O75879, 213-237: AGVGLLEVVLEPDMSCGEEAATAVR
# UniProt Q6PIW4, 151-170: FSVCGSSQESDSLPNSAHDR
# UniProt Q6PIW4, 347-375: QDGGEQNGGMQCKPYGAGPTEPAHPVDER
# UniProt Q14C86, 735-754: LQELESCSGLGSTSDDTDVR
# UniProt Q8N3X1, 655-674: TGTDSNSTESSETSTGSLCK
# UniProt Q96ME1, 148-167: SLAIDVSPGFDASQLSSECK
# UniProt Q9C0B1, whole entry, looked up: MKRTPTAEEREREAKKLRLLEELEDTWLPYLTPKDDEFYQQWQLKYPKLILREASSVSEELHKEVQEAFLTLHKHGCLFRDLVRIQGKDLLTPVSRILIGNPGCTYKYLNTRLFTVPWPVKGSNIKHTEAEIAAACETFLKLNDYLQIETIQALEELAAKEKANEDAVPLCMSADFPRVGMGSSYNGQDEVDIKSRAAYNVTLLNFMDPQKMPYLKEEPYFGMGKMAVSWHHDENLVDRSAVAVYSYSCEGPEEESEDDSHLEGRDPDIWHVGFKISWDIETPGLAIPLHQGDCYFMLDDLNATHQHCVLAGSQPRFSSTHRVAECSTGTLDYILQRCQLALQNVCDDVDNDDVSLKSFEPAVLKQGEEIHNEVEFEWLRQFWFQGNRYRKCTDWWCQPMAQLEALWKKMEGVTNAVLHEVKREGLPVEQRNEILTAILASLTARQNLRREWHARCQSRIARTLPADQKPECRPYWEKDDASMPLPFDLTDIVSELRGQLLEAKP
# UniProt O43716: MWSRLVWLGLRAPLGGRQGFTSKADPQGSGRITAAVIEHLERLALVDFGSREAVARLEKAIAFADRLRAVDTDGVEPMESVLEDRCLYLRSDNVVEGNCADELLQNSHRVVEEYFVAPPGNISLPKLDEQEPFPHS
# UniProt Q6UN15, 211-230: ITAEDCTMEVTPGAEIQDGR
# UniProt Q9Y613, 40-60: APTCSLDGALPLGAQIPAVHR
# UniProt P22087, 266-285: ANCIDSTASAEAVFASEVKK
# UniProt Q14254, 56-76: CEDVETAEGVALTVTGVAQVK
# UniProt Q8IY81, 188-209: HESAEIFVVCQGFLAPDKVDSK
# UniProt O14976: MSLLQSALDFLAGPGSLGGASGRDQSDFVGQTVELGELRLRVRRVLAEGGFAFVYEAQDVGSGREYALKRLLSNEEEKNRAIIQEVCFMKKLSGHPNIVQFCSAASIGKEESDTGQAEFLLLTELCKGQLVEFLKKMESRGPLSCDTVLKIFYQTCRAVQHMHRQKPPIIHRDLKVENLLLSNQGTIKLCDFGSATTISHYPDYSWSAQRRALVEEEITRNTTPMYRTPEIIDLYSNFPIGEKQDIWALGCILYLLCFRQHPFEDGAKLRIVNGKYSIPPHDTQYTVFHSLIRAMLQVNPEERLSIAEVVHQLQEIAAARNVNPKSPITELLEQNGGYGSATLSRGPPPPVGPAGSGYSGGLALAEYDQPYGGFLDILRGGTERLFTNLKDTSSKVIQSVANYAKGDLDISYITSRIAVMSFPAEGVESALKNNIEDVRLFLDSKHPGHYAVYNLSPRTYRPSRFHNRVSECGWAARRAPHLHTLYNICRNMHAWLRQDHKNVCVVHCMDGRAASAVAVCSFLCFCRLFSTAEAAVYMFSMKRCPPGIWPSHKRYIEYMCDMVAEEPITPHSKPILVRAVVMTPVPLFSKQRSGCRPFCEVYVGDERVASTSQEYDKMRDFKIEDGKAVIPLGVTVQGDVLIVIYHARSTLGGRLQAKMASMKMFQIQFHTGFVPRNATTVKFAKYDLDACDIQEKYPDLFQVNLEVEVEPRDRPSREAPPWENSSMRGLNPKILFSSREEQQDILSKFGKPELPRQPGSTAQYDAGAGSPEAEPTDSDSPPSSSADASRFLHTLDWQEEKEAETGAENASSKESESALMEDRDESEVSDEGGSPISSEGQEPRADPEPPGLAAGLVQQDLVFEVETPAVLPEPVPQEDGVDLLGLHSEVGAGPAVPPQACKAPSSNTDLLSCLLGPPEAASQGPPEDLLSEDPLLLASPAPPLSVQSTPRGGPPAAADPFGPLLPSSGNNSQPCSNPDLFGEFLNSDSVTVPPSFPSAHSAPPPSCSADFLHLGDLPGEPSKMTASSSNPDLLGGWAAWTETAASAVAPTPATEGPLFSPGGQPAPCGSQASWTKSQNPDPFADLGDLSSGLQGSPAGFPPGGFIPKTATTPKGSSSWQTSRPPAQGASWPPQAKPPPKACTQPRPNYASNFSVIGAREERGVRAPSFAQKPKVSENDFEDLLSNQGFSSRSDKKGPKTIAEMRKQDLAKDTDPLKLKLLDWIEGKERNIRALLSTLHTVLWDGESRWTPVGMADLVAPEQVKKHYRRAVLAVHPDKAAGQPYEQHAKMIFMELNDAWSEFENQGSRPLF
# UniProt Q9P0K8: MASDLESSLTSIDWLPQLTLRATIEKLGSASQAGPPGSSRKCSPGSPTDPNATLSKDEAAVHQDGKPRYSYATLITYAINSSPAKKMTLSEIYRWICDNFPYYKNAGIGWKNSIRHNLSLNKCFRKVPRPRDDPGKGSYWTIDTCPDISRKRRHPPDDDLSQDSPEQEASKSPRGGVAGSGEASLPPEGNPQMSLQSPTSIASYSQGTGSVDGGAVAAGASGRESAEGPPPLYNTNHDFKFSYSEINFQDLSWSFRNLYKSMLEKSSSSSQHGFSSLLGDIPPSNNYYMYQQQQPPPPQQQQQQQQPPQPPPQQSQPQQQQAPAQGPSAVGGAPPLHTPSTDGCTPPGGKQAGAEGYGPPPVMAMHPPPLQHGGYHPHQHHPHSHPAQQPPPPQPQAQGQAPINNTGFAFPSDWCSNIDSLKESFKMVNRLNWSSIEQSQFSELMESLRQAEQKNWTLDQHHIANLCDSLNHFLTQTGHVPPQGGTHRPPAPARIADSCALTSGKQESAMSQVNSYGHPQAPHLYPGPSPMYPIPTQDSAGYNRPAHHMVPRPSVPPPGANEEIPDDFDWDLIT
# UniProt Q96IG2: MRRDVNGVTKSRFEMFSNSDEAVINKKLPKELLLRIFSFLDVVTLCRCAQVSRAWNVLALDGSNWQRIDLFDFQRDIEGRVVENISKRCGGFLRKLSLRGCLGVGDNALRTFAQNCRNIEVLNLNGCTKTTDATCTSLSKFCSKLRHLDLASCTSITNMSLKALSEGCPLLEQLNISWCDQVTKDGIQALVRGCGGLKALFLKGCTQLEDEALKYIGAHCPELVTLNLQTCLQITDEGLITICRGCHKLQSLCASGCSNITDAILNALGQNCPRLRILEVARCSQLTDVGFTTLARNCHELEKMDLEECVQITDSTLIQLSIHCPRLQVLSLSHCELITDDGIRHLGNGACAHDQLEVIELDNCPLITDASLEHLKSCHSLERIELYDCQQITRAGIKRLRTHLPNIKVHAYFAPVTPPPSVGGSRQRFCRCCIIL
# UniProt Q9BZ67, 236-255: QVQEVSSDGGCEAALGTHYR
# UniProt Q8NFG4: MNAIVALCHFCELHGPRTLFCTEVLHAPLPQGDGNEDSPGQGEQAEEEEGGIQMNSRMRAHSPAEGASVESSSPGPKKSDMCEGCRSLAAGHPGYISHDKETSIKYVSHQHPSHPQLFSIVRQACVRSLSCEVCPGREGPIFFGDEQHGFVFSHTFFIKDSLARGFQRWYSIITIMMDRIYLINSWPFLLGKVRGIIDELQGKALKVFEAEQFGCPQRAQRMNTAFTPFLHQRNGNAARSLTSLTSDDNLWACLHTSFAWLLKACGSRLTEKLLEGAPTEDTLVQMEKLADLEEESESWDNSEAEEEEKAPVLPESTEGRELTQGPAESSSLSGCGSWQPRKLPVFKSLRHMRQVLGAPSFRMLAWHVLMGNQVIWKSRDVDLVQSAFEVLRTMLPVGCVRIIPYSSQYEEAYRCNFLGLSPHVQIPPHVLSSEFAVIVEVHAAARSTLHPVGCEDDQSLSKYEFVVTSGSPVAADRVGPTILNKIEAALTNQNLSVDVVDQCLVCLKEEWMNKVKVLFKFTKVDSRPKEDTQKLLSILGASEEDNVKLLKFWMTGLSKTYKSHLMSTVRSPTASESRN
# UniProt Q14697, 494-518: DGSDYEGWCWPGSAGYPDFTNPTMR
# UniProt Q96CP2, 112-138: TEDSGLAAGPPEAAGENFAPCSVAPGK
# Some of the results follow. The data scatter; read single values as rough.
# Columns and labels:
# [1] = compound: ClCC(=O)N[C@@H]1CCCc2ccccc12; assay: log2 mean competition ratio of IA-DTB cysteine labelling (DMSO/compound) (log2 ratio); higher = stronger cysteine engagement by compound; conditions: treatment time: 4 h, cell line lysate: HEK293T
# Method: (§1)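 IA-DTB competitive cysteine chemoproteomics in HEK293T RIPA lysate. Lysates were treated with compound 29 or 30 at 50 or 200 µM for 4 h, then IA-DTB (500 µM, 1 h), trypsin-digested, NeutrAvidin-enriched and analysed by diaPASEF. Competition ratio = intensity DMSO / intensity compound (n=4 treated, n=64 DMSO); binding: mean log2 CR ≥ 1 and p ≤ 0.05 plus QC filters. Target is the cysteine site.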
# [2] = compound: ClCC(=O)N[C@H]1CCCc2ccccc12; assay: as above; conditions: treatment time: 4 h, cell line lysate: HEK293T
# Method: as §1
Target,log2 mean competition ratio ([1]; 50 µM),log2 mean competition ratio ([1]; 200 µM),log2 mean competition ratio ([2]; 50 µM),log2 mean competition ratio ([2]; 200 µM)
FXR1 C141 (UniProt P51114),-0.273,-0.00739,–,–
FAT4 C4166 (UniProt Q6V0I7),-0.158,0.0687,–,–
FBXL19 C670 (UniProt Q6PCT2),-0.366,0.671,–,–
FYCO1 C1110 (UniProt Q9BQS8),-0.0667,-0.127,–,–
FOCAD C657 (UniProt Q5VW36),0.0593,-0.0474,–,–
FDXR C152 (UniProt P22570),-0.239,0.103,–,–
FLNB C2537 (UniProt O75369),-0.145,0.181,–,–
FBXL2 C88,-0.0724,0.184,–,–
GATB C228 (UniProt O75879),-0.362,0.211,–,–
FLI1 C83 (UniProt Q01543),-0.0506,0.284,–,–
FASTKD1 C838 (UniProt Q53R41),-0.0312,-0.451,–,–
GART C41,-0.262,-0.0708,–,–
GAB1 C405 (UniProt Q13480),-0.00819,-0.122,–,–
FSCN1 C61 (UniProt Q16658),-0.0453,0.0374,–,–
FLNB C2501 (UniProt O75369),-0.0906,-0.0479,–,–
GAMT C220 (UniProt Q14353),-0.0752,-0.162,–,–
FIGNL1 C154 (UniProt Q6PIW4),0.726,0.184,–,–
FHL1 C71 (UniProt Q13642),0.278,-0.252,–,–
FOXO4 C243 (UniProt P98177),0.0209,0.251,–,–
FKBP10 C222 (UniProt Q96AY3),-0.233,-0.0875,–,–
FER C796 (UniProt P16591),0.124,0.115,–,–
GART C506,-0.092,-0.062,–,–
FASN C1828,0.412,0.43,–,–
FHOD3 C347,-0.138,0.00448,–,–

# An excerpt of the results above, as a working copy:
Target,log2 mean competition ratio ([1]; 50 µM),log2 mean competition ratio ([1]; 200 µM),log2 mean competition ratio ([2]; 50 µM),log2 mean competition ratio ([2]; 200 µM)
GATB C228 (UniProt O75879),-0.362,0.211,–,–
FLI1 C83 (UniProt Q01543),-0.0506,0.284,–,–
FASTKD1 C838 (UniProt Q53R41),-0.0312,-0.451,–,–

# Continuation:

Target,log2 mean competition ratio ([1]; 50 µM),log2 mean competition ratio ([1]; 200 µM),log2 mean competition ratio ([2]; 50 µM),log2 mean competition ratio ([2]; 200 µM)
GAB2 C9 (UniProt Q9UQC2),0.16,-0.155,–,–
GAPVD1 C1160 (UniProt Q14C86),0.0273,-0.0683,–,–
FNBP4 C673 (UniProt Q8N3X1),-0.366,0.361,–,–
FBXL18 C166 (UniProt Q96ME1),-0.116,0.113,–,–
FOXF1 C339,-0.296,0.924,–,–
FTO C171 (UniProt Q9C0B1),-0.117,-0.184,–,–
FGFR4 C172 (UniProt P22455),-0.152,-0.0652,–,–
FTO C104 (UniProt Q9C0B1),-0.124,0.133,–,–
GAPVD1 C1396 (UniProt Q14C86),0.0116,0.119,–,–
GAB2 C406 (UniProt Q9UQC2),0.113,-0.404,–,–
GAPVD1 C293 (UniProt Q14C86),-0.0642,-0.0438,–,–
FHL3 C10 (UniProt Q13643),0.117,0.0488,–,–
FASN C1759,0.00417,-0.633,–,–
GATC C99 (UniProt O43716),-0.238,0.0199,–,–
FUBP3 C366 (UniProt Q96I24),-0.0215,-0.0658,–,–
FIP1L1 C216 (UniProt Q6UN15),-0.469,-0.127,0.162,-0.103
FBXL18 C324 (UniProt Q96ME1),0.068,0.0782,–,–
FTSJ1 C295 (UniProt Q9UET6),-0.0624,0.0144,–,–
FBXO11 C581 (UniProt Q86XK2),0.328,0.197,–,0.497
GATA2 C413 (UniProt P23769),-0.223,-0.0415,–,-0.0854
FLII C576 (UniProt Q13045),-0.167,-0.0822,–,0.187
FKBP8 C227 (UniProt Q14318),0.218,-0.00779,–,–
FBN2 C149 (UniProt P35556),0.135,0.0651,–,–
FHOD1 C164 (UniProt Q9Y613),-0.0355,-0.154,–,–

Target,log2 mean competition ratio ([1]; 50 µM),log2 mean competition ratio ([1]; 200 µM),log2 mean competition ratio ([2]; 50 µM),log2 mean competition ratio ([2]; 200 µM)
FASTKD3 C378 (UniProt Q14CZ7),-0.0646,0.0383,0.241,-0.165
FARS2 C344 (UniProt O95363),-0.129,-0.172,–,–
FYN C246 (UniProt P06241),-0.0781,-0.588,–,-0.591
FHIP2B C186,-0.0208,-0.272,–,–
GAREM1 C796,0.0375,0.443,–,0.112
FBL C268 (UniProt P22087),-0.0902,-0.0499,–,–
FLOT2 C56 (UniProt Q14254),-0.251,-0.217,–,–
GALK2 C303 (UniProt Q01415),0.55,-0.0474,–,–
FTSJ3 C577 (UniProt Q8IY81),-0.284,0.000919,-0.101,0.103
FBXO5 C202 (UniProt Q9UKT4),0.295,0.18,–,-0.0843
FDXR C105 (UniProt P22570),0.113,-0.0454,–,–
FTSJ3 C197 (UniProt Q8IY81),-0.182,0.26,–,–
FHIP2B C93,-0.296,-0.328,-0.399,0.0185
FBXO3 C136 (UniProt Q9UK99),-0.339,0.0483,–,–
FNDC3A C211 (UniProt Q9Y2H6),0.247,0.113,–,–
GAK C691 (UniProt O14976),0.00601,-0.236,–,–
FOXJ2 C145 (UniProt Q9P0K8),-0.156,-0.304,–,–
FASN C1227,-0.299,-0.176,–,–
FBXL20 C127 (UniProt Q96IG2),0.273,0.228,–,–
GARRE1 C512,0.109,0.134,–,–
FASTKD2 C377 (UniProt Q9NYY8),0.551,1.53,–,–
FBXL20 C116 (UniProt Q96IG2),-0.076,0.189,-0.0124,0.157
FKBP15 C1031 (UniProt Q5T1M5),-0.21,-0.231,–,–
FERMT2 C426 (UniProt Q96AC1),-0.146,-0.121,–,–

Target,log2 mean competition ratio ([1]; 50 µM),log2 mean competition ratio ([1]; 200 µM),log2 mean competition ratio ([2]; 50 µM),log2 mean competition ratio ([2]; 200 µM)
FBXL20 C389 (UniProt Q96IG2),0.00728,0.0939,-0.151,–
FYN C404 (UniProt P06241),0.12,0.137,-0.487,0.164
FHOD1 C43 (UniProt Q9Y613),0.478,0.0673,-0.351,-0.163
FRMD8 C246 (UniProt Q9BZ67),-0.645,0.519,-0.233,0.457
FIGNL1 C358 (UniProt Q6PIW4),-0.358,0.000382,0.105,-0.00935
FZD3 C165,-0.281,-0.0542,0.141,-0.146
FXYD6 C63,0.473,-0.116,0.559,-0.0968
FGD1 C926,0.0709,-0.0495,0.0428,0.0841
G3BP2 C73 (UniProt Q9UN86),0.234,0.0806,0.266,0.21
FLCN C454 (UniProt Q8NFG4),-0.0626,-0.124,-0.399,-0.0988
FRYL C288 (UniProt O94915),0.0829,0.0401,0.504,0.218
FSCN1 C80 (UniProt Q16658),-0.14,0.0884,-0.335,0.101
GART C646,0.0583,-0.0304,0.197,-0.0425
GADD45GIP1 C124 (UniProt Q8TAE8),0.271,0.0312,0.0552,-0.0549
FCHSD2 C33 (UniProt O94868),-0.0921,0.214,0.00827,0.345
FMNL3 C862 (UniProt Q8IVF7),-0.305,-0.0423,-0.264,0.00798
FLNB C1326 (UniProt O75369),-0.204,0.124,-0.349,-0.01
GAPVD1 C741 (UniProt Q14C86),-0.4,-0.179,0.276,0.0956
FYCO1 C928 (UniProt Q9BQS8),-0.319,0.514,-0.243,-0.0109
FHOD1 C373 (UniProt Q9Y613),-0.0983,-0.0724,-0.058,-0.00971
FASN C135,-0.21,-0.0302,-0.375,-0.0752
FKBP4 C342 (UniProt Q02790),0.28,0.0631,0.11,-0.0402
FKBP8 C295 (UniProt Q14318),-0.0547,-0.0609,-0.595,-0.0948
FASN C2202,-0.159,-0.36,-0.28,-0.306

Target,log2 mean competition ratio ([1]; 50 µM),log2 mean competition ratio ([1]; 200 µM),log2 mean competition ratio ([2]; 50 µM),log2 mean competition ratio ([2]; 200 µM)
FASN C223,0.102,-0.14,0.142,0.0972
FER C690 (UniProt P16591),0.0841,0.113,-0.227,0.144
FASN C1992,-0.159,-0.103,-0.255,-0.253
FXR2 C270 (UniProt P51116),0.514,0.325,-0.118,0.0314
GART C941,-0.181,0.624,0.576,0.315
FKBP5 C394 (UniProt Q13451),0.317,0.0976,0.606,0.163
FASTKD3 C594 (UniProt Q14CZ7),-0.0999,0.147,-0.248,-0.000307
GANAB C502 (UniProt Q14697),-0.25,0.343,-0.084,0.213
FLOT2 C88 (UniProt Q14254),0.0759,0.287,-0.216,-0.288
FTO C326 (UniProt Q9C0B1),-0.247,-0.0281,0.109,0.118
FLNA C2107,0.734,-0.000867,0.508,0.0247
FASN C630,0.318,0.237,0.81,0.97
FSCN1 C397 (UniProt Q16658),-0.094,0.0241,-0.049,-0.0182
FPGS C171 (UniProt Q05932),-0.0838,-0.33,0.15,-0.0738
GAK C472 (UniProt O14976),0.25,0.0554,0.0794,0.0125
FIG4 C839 (UniProt Q92562),0.119,0.151,0.0452,0.24
GAK C145 (UniProt O14976),0.103,0.0725,0.431,0.167
FBXL20 C101 (UniProt Q96IG2),0.2,0.339,0.0134,0.266
FLYWCH2 C132 (UniProt Q96CP2),-0.281,-0.134,0.394,-0.0616
GALT C75 (UniProt P07902),-0.266,0.268,-0.38,0.218
FBXO10 C778,-0.176,0.226,-0.187,0.0486
FRYL C1177 (UniProt O94915),0.16,0.079,-0.176,-0.143
FBXO30 C592 (UniProt Q8TB52),-0.0212,0.169,0.127,0.297
FN3KRP C11 (UniProt Q9HA64),-0.0603,0.0265,-0.341,0.0842
